Experimental data from article doi:10.1101/2021.03.18.436048.
Results are given in words; binding and its absence hold for the method and conditions named. Binding seen in cells or lysates may run through a third protein. Some results given as binding are weak or reduced against the parent protein; the word gives no strength. Where a sequence is shown, tags or fusion partners need not be part of it.

By UniProt entry, the sequences of proteins in these tests, tags left out.
UniProt P84077: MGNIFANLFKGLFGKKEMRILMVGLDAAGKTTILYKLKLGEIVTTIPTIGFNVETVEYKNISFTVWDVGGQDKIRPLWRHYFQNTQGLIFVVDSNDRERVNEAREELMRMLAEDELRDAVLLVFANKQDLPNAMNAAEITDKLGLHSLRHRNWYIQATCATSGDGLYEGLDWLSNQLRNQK

Molecular target: T1, Glutathione S Transferase (GST)-tagged GAT domain of GGA3 (UniProt Q9NZ52)
T1 sequence: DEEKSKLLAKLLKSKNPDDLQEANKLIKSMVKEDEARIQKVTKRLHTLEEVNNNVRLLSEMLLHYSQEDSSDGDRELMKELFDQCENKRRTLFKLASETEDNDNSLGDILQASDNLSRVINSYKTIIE
Experiment: pull-down

- binding: binds
Substance: Arf1 (ADP-ribosylation factor-1) (from UniProt P84077 1-181)
